Test results reported in PubChem BioAssay AID1347076 (National Center for Advancing Translational Sciences (NCATS), 2019).
Screen size: about 400,000 compounds; about 13,000 (3.2%) were called active. Inconclusive results, whose numbers are uncertain, are shown with a selection of clear calls. Calls come from the whole dose curve; as a rule, active = well fitted cell-killing curve with a large enough effect; inconclusive = small, poorly fitted or top-dose-only effect, or effect the other way; inactive = flat fitted curve, though single readings scatter. Potencies of inconclusive entries are doubtful fits and often do not repeat.
Potency is the fitted concentration of half-maximal effect.

Assay: qHTS assay for MDR1-selective chemotherapeutics: Primary screen using the drug-selected MDR subline cells KB-V1; note: nearly all actives have a fitted effect of over 60% in size
Settings: KB-V1 MDR cells viability, CellTiter-Glo, 72 h; series mostly up to 46.1 µM
In short: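 qHTS viability screen in drug-selected KB-V1 MDR cells: 72 h compound treatment at 37 degrees C, ATP luminescence end point.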
In the case of O=C(CN1C(=O)COc2ccccc21)N1CCc2ccccc2C1, the Potency is reported as inconclusive: 23.1 µM [cytotoxic, partial curve, poor fit].
For COc1ccc(/C(N)=N/OC(=O)Oc2ccccc2)cc1, the Potency was inconclusive: 25.9 µM [rising, partial curve, poor fit].
With CCC(OC(C)=O)c1cc2c(cc1[N+](=O)[O-])OCCO2 (stereo not drawn) the Potency was inconclusive: 29.1 µM [rising, single point].
For Cn1cccc1/C=N/NC(=O)c1ccc(OC(F)(F)C(F)F)cc1, the Potency was “inactive”.
In the case of O=C(COc1ccc2ccc(=O)oc2c1)N1CCN(c2ccccc2)CC1, the Potency is reported as inconclusive: 29.1 µM [cytotoxic, single point].
In the case of CCOc1cc(CN2CCC(N3CCC(C(=O)NC4CC4)CC3)CC2)ccc1O, the Potency is reported as “inactive”.
For CCCCc1c(C)nc2ccc(Br)cc2c1SC(N)N, the Potency was “inactive”.
In the case of COc1ccc(S(=O)(=O)N2CCCCC2)cc1NC(=O)c1ccc(N2CCCC2=O)cc1, the Potency is reported as inconclusive: 29.1 µM [cytotoxic, single point].
In the case of COc1ccc(CNC(=O)C2(CC3CC(c4ccccc4)=NO3)CCNCC2)cc1 (stereo not drawn), the Potency is reported as inconclusive: 29.1 µM [rising, single point].
For CCOC(=O)[C@]12CCC=C1N(CCC1=CCCCC1)C(=O)[C@H](CC(=O)N1CCN(C(=O)c3ccco3)CC1)C2, the Potency was “inactive”.
For CCCN(CCC)CCCNC(=O)c1cc2cc3ccc(OC)cc3nc2o1, the Potency was “inactive”.
With Cc1ccc(NC(=O)COC(=O)c2c(C)nn(-c3ccccc3)c2C)cc1 the Potency was “inactive”.
For COc1ccc(/C=N/NC(=O)Cc2ccc(Cl)cc2)cc1OC, the Potency was inconclusive: 18.4 µM [cytotoxic, single point].
For Cc1cccc(N2C(=O)c3ccc(C(=O)Nc4cccc(C(=O)O)c4)cc3C2=O)c1, the Potency was inconclusive: 29.1 µM [rising, partial curve, poor fit].
In the case of COC(=O)c1cn(CC(C)n2c(=O)c3ccccc3n2Cc2cc(C(C)C)no2)nn1 (stereo not drawn), the Potency is reported as “inactive”.
In the case of CC(=O)OCC1OC(n2c3c(cc(C#N)c2=S)CCCC3)C(OC(C)=O)C(OC(C)=O)C1OC(C)=O (stereo not drawn), the Potency is reported as inconclusive: 2.59 µM [cytotoxic, full curve, poor fit].
In the case of COc1cccc(NC(=O)CCc2c(C)nc3nc(CNC(=O)c4cccc(F)c4)nn3c2C)c1, the Potency is reported as inconclusive: 29.1 µM [rising, single point].
In the case of CCN(CC(=O)NCc1cccs1)C(=O)COc1ccc(C(N)=O)cc1, the Potency is reported as “inactive”.
In the case of CCN(CC)S(=O)(=O)c1ccc(N2CCCC2)c(NC(=O)c2ccncc2)c1, the Potency is reported as inconclusive: 16.4 µM [cytotoxic, partial curve, poor fit].
For CCCCCOc1ccc(C(=O)CCC(=O)Nc2ccc(NC(C)=O)cc2)cc1, the Potency was inconclusive: 0.58 µM [rising, single point].
With COc1ccc(-c2cnc(C)o2)cc1S(=O)(=O)Nc1c(C)cc(C)cc1C the Potency was “inactive”.
For CC(c1ccccc1)n1cc2c(c1-c1ccccc1Br)c(=O)n(C)c(=O)n2C (stereo not drawn), the Potency was “inactive”.
For Cc1ccc2c(c1)-c1c(cnc3cc(-c4ccc(F)cc4)nn13)CO2, the Potency was “inactive”.
In the case of CCc1ccc(C2=C(C)C(N3CCC(C(=O)NCc4ccccc4)CC3)=NS2(=O)=O)cc1, the Potency is reported as “inactive”.
In the case of Cc1ccc(CNC(=O)c2c(O)nc3cc(C)ccn3c2=O)cc1, the Potency is reported as “inactive”.
With Cc1ccc(-c2nnn(CC(=O)N(c3ccccc3F)C(C(=O)NCC3CCCO3)c3c[nH]c4ccccc34)n2)cc1 (stereo not drawn) the Potency was inconclusive: 18.4 µM [cytotoxic, single point].
In the case of C#CCOc1ccc(-c2nnc(Nc3ccc(NC(C)=O)cc3)c3ccccc23)cc1, the Potency is reported as inconclusive: 25.9 µM [rising, partial curve, poor fit].
In the case of CC(=O)N/N=C/c1cc(C)n(-c2ccc(Br)cc2)c1C, the Potency is reported as inconclusive: 16.4 µM [cytotoxic, single point].
For Cc1cc(C(=O)Nc2ccc(C#N)cc2)on1, the Potency was “inactive”.
For Cc1oc2ccc(O)c(CN3CCCC3)c2c1C(=O)Nc1ccc(C(C)C)cc1, the Potency was “inactive”.
In the case of CCCNC(=O)CN1CCC(c2nc3ccccc3[nH]2)CC1, the Potency is reported as inconclusive: 29.1 µM [rising, single point].
With O=C(CSc1nnc(CNC(=O)c2ccc(F)cc2)o1)Nc1ccc2c(c1)OCO2 the Potency was inconclusive: 18.4 µM [cytotoxic, single point].
In the case of CCN(CC)c1ccc(C(=O)N/N=C/c2ccc(OC)cc2OC)cc1, the Potency is reported as “inactive”.
For Cc1nc2ccccc2n1CC(=O)NC(C)C1CC2CCC1C2 (stereo not drawn), the Potency was inconclusive: 5.17 µM [cytotoxic, partial curve].
For COc1ccc([N+](=O)[O-])cc1/C=N/NC(=O)c1nonc1N, the Potency was “inactive”.
In the case of CCOC(=O)c1cnn(CCOC(=O)c2cccc(F)c2)c1NC(=O)c1cccc(F)c1, the Potency is reported as inconclusive: 32.6 µM [cytotoxic, single point].
For CC1CCc2c(sc(NC(=O)c3ccc(N4C(=O)CCC4=O)cc3)c2C(N)=O)C1 (stereo not drawn), the Potency was inconclusive: 11.6 µM [rising, single point].
In the case of CCCN(C(=O)c1cccc(S(=O)(=O)N2CCN(Cc3ccccc3)CC2)c1)C1CCS(=O)(=O)C1 (stereo not drawn), the Potency is reported as inconclusive: 18.4 µM [cytotoxic, partial curve].
In the case of CCN(CC(=O)Nc1ccc(NC(C)=O)cc1)C(=O)c1c(C)nn(-c2ccc(F)cc2)c1Cl, the Potency is reported as inconclusive: 20.6 µM [cytotoxic, single point].
For CCc1ccc(C(C)NC(=O)Cn2cnc3c(=O)n(C)c(=O)n(C)c32)cc1 (stereo not drawn), the Potency was inconclusive: 20.6 µM [cytotoxic, partial curve].
In the case of COc1ccc(C(CNC(=O)COc2ccc(F)cc2Br)N2CCCC2)cc1 (stereo not drawn), the Potency is reported as inconclusive: 8.2 µM [cytotoxic, partial curve].
For Cc1cc(N2CCN(C(=O)c3ccco3)CC2)n2nc(C)c(-c3ccccc3)c2n1, the Potency was active: 3.66 µM.
For CCCc1ncc(C(O)(c2ccccc2)c2ccccc2)n1C, the Potency was inconclusive: 32.6 µM [cytotoxic, single point].
In the case of O=C(NC1CCCCC1)C(c1ccc(F)cc1)N(CCN1CCOCC1)C(=O)c1ccc(-c2ccccc2)[nH]1 (stereo not drawn), the Potency is reported as “inactive”.
With COc1cccc(-c2cc3nc4c(c(NCC(C)(C)CN(C)C)n3n2)CCCC4)c1 the Potency was inconclusive: 25.9 µM [cytotoxic, partial curve, poor fit].
With CCOC(=O)C(NCCCCl)c1ccccc1 (stereo not drawn) the Potency was inconclusive: 7.31 µM [rising, partial curve].
With CC(=O)Nc1ccc(NC(=O)C(C)Sc2nnc(-c3ccc4c(c3)OCO4)o2)cc1 (stereo not drawn) the Potency was inconclusive: 3.26 µM [rising, partial curve, poor fit].
For C[C@H](NC(=O)c1nc[nH]c1C(=O)N1CCN(C(=O)OC(C)(C)C)CC1)C(=O)OC(C)(C)C, the Potency was “inactive”.
In the case of CCCn1nnc(NC(=O)c2ccccc2Br)n1, the Potency is reported as “inactive”.
In the case of Cc1cc(C(=O)CSc2nnc(-c3ccccc3)n2Cc2ccc3c(c2)OCO3)c(C)n1C, the Potency is reported as “inactive”.
With COc1ccc(/C=C/C(=O)NC(=S)NNC(=O)c2c(-c3ccccc3)noc2C)cc1 the Potency was active: 7.31 µM.
With O=C(c1ccc2c(c1)OCO2)N1CCN(c2ccc(Cl)cc2)CC1 the Potency was inconclusive: 20.6 µM [cytotoxic, single point].
With O=C(NC(=S)Nc1cccnc1)c1cccc(Br)c1 the Potency was “inactive”.
For CN(Cc1c(C(=O)N/N=C/c2ccccc2O)nnn1-c1nonc1N)C1CCCCC1, the Potency was inconclusive: 0.92 µM [cytotoxic, full curve].
In the case of COc1ccc(CN2C(=O)c3ccccc3C2C(=O)NC2CCCC2)c(OC)c1 (stereo not drawn), the Potency is reported as active: 3.66 µM.
With CN(C)S(=O)(=O)c1cccc(C(=O)Nc2ccc3c(c2)CCC3)c1 the Potency was inconclusive: 18.4 µM [cytotoxic, single point].
For CCOC(=O)COc1ccc(C2NC(C(=O)O)CS2)cc1 (stereo not drawn), the Potency was inconclusive: 20.6 µM [rising, single point].
For Cc1cc(=O)n(CCO)c(O)c1C#N, the Potency was “inactive”.
For O=C(CSc1ccccc1)Nc1ccc(C(=O)Nc2ccc(O)cc2)cc1, the Potency was inconclusive: 32.6 µM [cytotoxic, single point].
With CCN1C(=O)[C@H]2[C@@H](c3ccc(-c4cccc(Cl)c4)cc3)N[C@@](CC(C)C)(C(=O)OC)[C@H]2C1=O the Potency was inconclusive: 29.1 µM [cytotoxic, partial curve, poor fit].
For CCOc1ccc(S(=O)(=O)NCc2ccco2)c2ccccc12, the Potency was inconclusive: 20.6 µM [cytotoxic, partial curve, poor fit].
For CNC(=O)CN(c1cc(C)ccc1C)S(C)(=O)=O, the Potency was inconclusive: 10.3 µM [rising, partial curve, poor fit].
In the case of Cc1ccc(C(=O)CN2/C(=C(\O)c3ccccc3)C(=O)c3ccccc3S2(=O)=O)c(C)c1, the Potency is reported as active: 2.31 µM.
For O=C1C2CCCN2C(c2ccccc2)N1c1ccc(Cl)cc1 (stereo not drawn), the Potency was inconclusive: 6.51 µM [cytotoxic, partial curve].
With Cc1ccc(CC(=O)NCc2ccc(Cl)cc2)cc1 the Potency was inconclusive: 3.66 µM [cytotoxic, full curve, poor fit].
In the case of CCC1SC2=NC(C)=C(C(=O)OCC(C)C)C(/C=C/c3ccccc3OC)N2C1=O (stereo not drawn), the Potency is reported as inconclusive: 2.91 µM [cytotoxic, partial curve, poor fit].
For Cc1nc(CN2CCN(S(=O)(=O)c3c(Cl)cc(Br)cc3Cl)CC2)cs1, the Potency was inconclusive: 11.6 µM [cytotoxic, partial curve].
For CCCCN1C(=O)C(CC(=O)NCc2ccco2)CC(C(=O)N2CCCCCC2)=C1C (stereo not drawn), the Potency was inconclusive: 16.4 µM [cytotoxic, single point].
